No constants are given. Whether binding was seen depends on the method and setting. Binding seen in cells or lysates may run through a third protein. Here binding means that the protein was enriched with, or labelled near, the bait; the list need not be complete. Sequences can lack the tags named with a protein.
T1: MecA with C-terminal tandem affinity purification (TAP) tag (3x HA + FLAG) (S. mutans) (UniProt Q8DW33)
T1 sequence: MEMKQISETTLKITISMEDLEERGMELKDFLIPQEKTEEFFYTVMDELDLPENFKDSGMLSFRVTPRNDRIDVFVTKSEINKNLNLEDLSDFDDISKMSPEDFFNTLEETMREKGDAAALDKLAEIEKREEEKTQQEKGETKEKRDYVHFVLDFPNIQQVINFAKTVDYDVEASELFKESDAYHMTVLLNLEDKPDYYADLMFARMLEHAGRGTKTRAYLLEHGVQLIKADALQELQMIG

B1: Type I restriction-modification system subunit M, HsdM (protein, UniProt Q8DUM7 1-534)
chain: MSFNKESQQRQELHQKIWAIADNVRGAVDGWDFKQYILGILFYRFISENMSDYFDRAEHEAGDPDFRYADLSDEEAEEDFKPDTVEEKGFFILPSQLFENIVKTASTNENLNTDLAKIFKKIEESAIGKDSEHAIKGLFDDVDTTSNRLGGSVKEKNKRLSDILTGIAGLDFGTFEENDIDAFGDAYEYLISNYASNAGKSGGEFFTPQTVSKLLAQLVMVGKEHINKVYDPTCGSGSLLLQMKKQFETHILEEGFFGQEINMTNYNLARMNMFLHNINYNNFDIRRGDTLLNPQHLYERPFDAIVSNPPYSIKWIGDADPTLINDERFAPAGKLAPKSKADFAFIMHSLSHLSNKGRAAIVCFPGIFYRGGAEKTIRQYLIDNNFVEAVIALPDNLFYGTSIATYILVLAKNKPEDKTLFIDASSDEKSTVSGKNKFYETVTNGKILNPKNIEAIVELFKNKKDVDYEAKLVDNNLIAEENDYNLSVSTYVEKRDTREIINIDELNKEIAETVKKIDHLRSEIDKIVEELSHD
B2: Dipeptidase PepV, PepV (protein, UniProt Q8DTT4 1-470)
chain: MFVDFQKEVDKRRGDILADLFRILQINSERDDSKADKKHPFGPGPVQALEHFLKMAERDGYETKNVNNYAGHFEYGQGDEVLGIFAHLDVVPAGSGWKTSPYLPEIINGKLYARGASDDKGPTIACYYGLKIIKELGLPVSKKVRFVVGTDEESGWADMDYYFEHVDMPEPDFGFSPDAYFPIINGEKGNITEYLHFGNSNGGSFILKSFKGGLRENMVPESATAVFSATICLAELQESLTAFTEQHALTADLKEEAGNFVLTLHGKSAHGSTPEAGINGATYLARFLSQFDFAGDAKAYLDLAANVLLDDHAGEKLGVAYKDEKMGSVSMNPGVFSFDSQSEDNSIALNFRYPQGTDAQTIKASLEQLSVSGVREVTLSEHEQKPHYVPMDDPLVATLLAVYEKHTGDKGHEWVIGGGTFGRLLKRGVAFGAMFPHSTDTMHQANEFVEVNDLYKAAAIYAEAIYELIK
B3: Glycogen/starch/alpha-glucan phosphorylase, PhsG (protein, UniProt Q8DT55 1-798)
chain: MQLTKEKFIRDFKDTLHEEQLIKIPEATPTELFASLAKVVRKYYTPLWLERNRKISQNQQKVAYYFSIEFLPGRMLETNLLNLGILDTVKEGFAELGVNFEDVKNAEHDMALGNGGLGRLAAAFMDSLATTGYPGFGNGLRYKYGLFKQRIVDGYQVELPDSWFGSVGNVWETRKDHDAVEVKLFGNVYLQANERGRIVPVYDGAQILRAIPYDVPQIGFGNDNINNLRLWDVEIPEECELNYPTLESRRRVKNITAILYPDDSNYEGKELRLIQEYFMTSAGLQTIIKSYLKQGLPLERIHEKISVHINDTHPAVAPAEFMRLLIDEYDLEWDQAWETTVQTMSYTNHTILSEALEKWDAGLFKNVLPRVYQIILEIDNRFVAGLAQKGIDPQIIENTRIVKDNQIHMANLAIIGGHSVNGVAKLHTELLKEDTLHDFYTLYPGKFNNKTNGIVQRRWTQIAAPELSAALDQTIGNSWRTDIHELRKLNDFANDSAVLDHFYQVKQDAKAKLAAYIKESTGVEVSTDAIFDVQVKRLHAYKRQLLNVLHIVKLYWDLKDNPNLDMVPRVFIFGAKAAPGYHFAKSVIKIINELANLINSDESLQGKLKVVFLENYNVSLAELIIPAANVSEQISLASKEASGTSNMKFMMTGAVTLATLDGANIEIKDEVGDENIVIFGMTKDDVYRHYENHDYYSRGVYESNPVIKRVVDTFINGTIPNSQSEGTEIYEALITHNDEYFLLEDFIAYVQAQEKIDALYRDKETWSRMSLCNIANSDKFTSDDTITQYAKEIWHLEI
B4: NAD-dependent malic enzyme, MleS (protein, UniProt Q8DWC7 1-540)
chain: MYAHDILNDPFLNKGTAFTMEERKKFGLIGLLPPHIQTLKEQAEQTYAQMQTKANNLEKRLFLMEIFNTNRTLFYYLFSQHLEELNPIVYDPTIADTIEGYSDLFVDPQYAGYLDINHPENIEATLKNAAGDRDIRLIVVTDAEGILGIGDWGTNGVDISVGKLMVYTGAAGIDPVTVLPLVIDAGTNREELRNNPNYLGNRHERVRGERYYDFVDQFVQTAERLFPKLYLHWEDFGRSNAANILEKYRKEIPTFNDDIQGTGIVTLGGIFAAMDITGEKLTDQVYLCYGGGTAGAGIASRVLREMVSEGLPEDEAYKRFFMVDKQGLLFDDMDDLTPEQKPFAKKRADFPNADQLTDLLQVVKTVKPTILVGTSTNPGAFTKEVVEAMCENTERPVIFPISNPTKLAEASAQDLITWSDGKAFVATGIPADTVSYKGVDYVIGQANNALIYPGLGLGMLASEASLLTDEMIGAAAHSLSGIIDITKPGAPVLPPFKYVGDVSIKVAEAVAKKAQEQGLARAEETDMAKAVRDFKWYPEY
B5: Fructose-bisphosphate aldolase, FbaA (protein, UniProt Q8DWG0 1-293)
chain: MAIVSAEKFVQAARDNGYAVGGFNTNNLEWTQAILRAAEAKKAPVLIQTSMGAAKYMGGYKLCKVLIETLVESMGITVPVAIHLDHGHYEDALECIEVGYTSIMFDGSHLPVEENLEKAKEVVAKAHAKGISVEAEVGTIGGEEDGIIGRGELAPIDDAKAMVETGIDFLAAGIGNIHGPYPANWEGLDLDHLKKLTEAVPGFPIVLHGGSGIPDDQIRAAIKLGVAKVNVNTECQIAFANATRKFAAEYEANEAEYDKKKLFDPRKFLKPGFEAITEAVEERIDVFGSEGKA
B6: Glycogen/starch/alpha-glucan phosphorylase, GlgP (protein, UniProt Q8DT31 1-758)
chain: MTQKTKQFSKYVQEKTGQNLEQLSNEAIYVQLLHFVKEAAKDMPKNTSKRKVYYISAEFLIGKLLSNNLINLGLYKTVKDELAAAGKSISQVEDVELEPSLGNGGLGRLASCFIDSMATLGINGEGVGLNYHCGLFKQVFRDNQQEAEPNYWIEDDSWLVPTAISYDVPFRDFTLKSKLDRIDILGYHKDSKNYLNLFDIDGLDYGLIKDGITFDKTEIKKNLTLFLYPDDSDKNGELLRIYQQYFMVSNAAQLLIDEALERGSNLHDLADYAYVQINDTHPSMVIPELIRLLNEKHGLDFYEAVDIVKNMIGYTNHTILAEALEKWPLEYLNEVVPHLVTIIEHLDRIVRSQYKDDAVQIIDRDDRVHMAHMDIHFSTSVNGVAALHTDILKNSELKPFYDIYPEKFNNKTNGITFRRWLEFANQDLAAYIKELIGEGYLEDATELEKLLAFADDKTVHEQLAKIKFNNKLALKRYLKENKGINLDENSIIDTQIKRFHEYKRQQMNALYVIYKYLEIKKGNLPKRKITVIFGGKAAPAYTIAQDIIHLILCLSELINNDPDVSPYLNVFLVENYNVTVAEKLIPATDISEQISLASKEASGTGNMKFMLNGALTLGTMDGANVEIAELVGSDNIYIFGKDSDTIIDLYDKGTYVSKDYYTNNAVIKEAVDFIVSKDVLALGKKERLERLYHELINKDWFMTLIDLKEYIAKKEEMLADYEDQNVWNKKVIQNIAKAGFFSSDRTIQQYDKDIWHSL
B7: Bifunctional acetaldehyde-CoA/alcohol dehydrogenase, AdhE (protein, UniProt Q8DWB9 1-889)
chain: MAKETKTEALTAEEAAKQYTNSLVEKALKAEKVYATYTQEQVDKIVAAMALAGSEASLQLAKEAHDETGRGVVEDKDTKNHFATEYVYERIKNEKTVGIIGEDKVAGSIEIAAPLGVLAGIVPTTNPTSTTMFKILVALKTRNAIVFAFHPAAQKCSAHAAQILYDAAVKAGAPENIVQWIETPSIANTGALISNKGIASILATGGPGMVNAALKSGNPSMGVGAGNGAVYVDATANLERAVEDLLLSKRFDNGMICATENSAVVEAPIYKEWLAKMQEKGAYLVPKKDYKKFEDFVFNDNHGVNGPVAGMSAKWICEQAGVTLPEGKDVLLFELDKKKIGEKLSSEKLSPLLSVYKAKDRKDGIDIVAALLDYQGAGHNCAIQIGSQADPFVAEYGDALNSSRVLVNQPDSVGGIGDVYTDALQASLTLGTGSWGKNSLSHNLSTGDLLNVKTVAKRRNRPQWVRLPEKTYYEKNAISYLQDETETMTRAIIVADPGMLQFGFVDTVLAQLSLRDEKVATSIYGTIKPDPTLGQTIEIARQMRDFKPDTVIAVGGGSALDAAKIARYIYEYSLDQEADFLDSYEKVSELFLELQQKFIDIRKRIVRFKHQTVTRLFCIPTTSGTGSEVTPYAVITDDFTHVKYPLTDYELTPQVAIVDPEFVMTVPKRTVALSGLDTLSHALESYVSVMASDFTRPWSMEAIRLVIENLEDSYNFDPKNPTLRGEQARENMHYAATLAGMAFSNAFLGINHSLAHKAGGEFGLPHGLAISIAMQHVIRYNGVAGNVKRSVYPRYEEYRAQRDYADIARALGLKGKDDAELVEALCARIDQLMHAVDVEPKLSANGVTKKAFDAAVDRLASLAYDDQCTPANPRQPYIEEMKQLLIDQF
B8: Heat-inducible transcriptional repressor, HrcA (protein, UniProt O06940 1-344)
chain: MITQRQKDILNLIVELFTKTHEPIGSKTLQNSIASSSATIRNDMAALEKLGLLEKAHTSSGRLPSQEGFRYFVEHSLNPDSLDEQDVYQVIKAFDFEAFRLGDLLQRASDVLANLTGYTALILDVEPKKQRLTTFDIVKLSNHDALAVLTLDEASPVTVQFAIPKNFLDSDLMTVAKIARERFLNQTVLDIHYRLRTELPQIIQKYFPRTDNVLDLFDHIFNPIFQEEVFISGKIKTLEFAGLNTYQFLENLQSVALEIRQSLPEDELHRVQVADSKEKSLADLTVISQKFLIPYRGFGILTVIGPVDLDYQRTISLINVISRVLAVKLGDFYRYLNSNHYEVH
B9: Trk system potassium transporter, TrkA (protein, UniProt Q8DSR3 1-451)
chain: MKIIVVGGGKVGKALCRSLVEEEHDVILIEENESVLNHVTKRLDIMGIVGNGANFRILEQADVQHCDIFIAITDKDEVNMVAAVLAKRMGAKETIVRVRNPEYSNTYFKDKNFLGFSLVVNPELLTARYIANMVDFPNARSVEHFVNGRVMLMEFKIVDGNNLCQMSLNQFRKRFNNIVICAIERGNELIIPDGDAVIQSGDKIFVTGKRMEMIHFHNFVKNKVIKHLMIIGAGRISYYLLNILKTTNRHLQVKVIELNPKKAELFSQEFPHIHVVQGDGTAKDILLEESAANYDAIATLTGVDEENIIASMFLETLGVQKNITKVNRTSILEIINPEQFSSIITPKSIAVDSMMHFIRGRVNAQDSNLDAMHHVANGRIETLQFEIRQTNKMAGKTLSELHFKTNVLIAAIIRNGKTIFPTGDDILEVGDKIVVITLLTNITHIYDLLKR

What follows are binders tested against T1, MecA with C-terminal tandem affinity purification (TAP) tag (3x HA + FLAG) (S. mutans) (assay: affinity purification with mass spectrometry).

**Q.** For B1, which binding is on record?
**A.** binds

These binders were tested against T1, MecA with C-terminal tandem affinity purification (TAP) tag (3x HA + FLAG) (S. mutans) (assay: affinity purification with mass spectrometry; MecA with C-terminal TAP tag (3x HA + FLAG) as bait; S. mutans grown to mid-logarithmic phase, formaldehyde crosslinked; anti-FLAG affinity resin, then anti-HA affinity resin; LC-MS/MS; three experiments; >=2-fold enrichment of spectral counts over the untagged wild type).

**Q.** For B2, which binding is on record?
**A.** binds

**Q.** For B3, which binding is on record?
**A.** binds

**Q.** B4 was tested. Which binding did it give?
**A.** binds

**Q.** With B5 as the binder, how does the binding read?
**A.** binds

**Q.** Which binding does the source give for B6 here?
**A.** binds

**Q.** Which binding does the source give for B7 here?
**A.** binds

**Q.** Which binding does the source give for B8 here?
**A.** binds

**Q.** How did the binding turn out when B9 was run?
**A.** binds
